# Primary screen of a compound library

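Assay of Toxoplasma gondii numbers, read through their beta-galactosidase reporter with a colour substrate. Concentration: 10 µM. The record gives no direction; the compounds picked for IC50 retests had high values, so higher reads as fewer parasites. About 67,000 compounds were tested under these conditions; 0.38% (about 260) showed 50% or more at least once.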

The filed quantity is “Percent Effect” (%). The controls that fix the scale are not given in the record; negative values are as filed. The compounds are a random part of those screened.

compound	Percent Effect
Fc1ccc(CN2CCC(c3n[nH]c4nccnc34)CC2)cc1F	8.008%
CCOc1cc(C)nc(N2CCN(C(=O)c3cc[nH]n3)CC2)n1	-15.67%
CN1CCCN(S(=O)(=O)c2cccc(C(=O)N3CCCCCC3)c2)CC1	7.528%
CC(C(=O)N1CCN(Cc2ccc3c(c2)OCO3)CC1)n1ccnc1 (stereo unspecified)	-20.67%
CCc1nc(C2CCCN2CC(=O)NCCOc2ccccc2)no1 (stereo unspecified)	-1.18%
CN(C)C(=O)CCC(=O)N1CCC2(CC1)COC2	5.891%
c1nc(N2CCCC2Cn2cncn2)c2ccsc2n1 (stereo unspecified)	-2.217%
[H][C@@]12CN(S(=O)(=O)CCC)C[C@]1([H])N(CCc1cccc(Cl)c1)C(=O)O2	-4.405%
[H][C@@]12CN(S(=O)(=O)c3ccccc3)C[C@@]1([H])N(CCOC)C(=O)CO2	0.06028%
COCCNC(=O)Nc1ccc(CN2CCOC2=O)cc1	15.82%
CC(C(=O)NCc1cccc(N2CCCC2=O)c1)S(C)(=O)=O (stereo unspecified)	1.042%
CNc1nc(CNC(=O)Nc2ccccc2SC)cs1	-18.07%
COCCNc1ncc(-c2cc(C)no2)c(-c2ccco2)n1	-48.02%
Cc1ccc(C2(O)CCN(C(=O)c3cccc(S(C)(=O)=O)c3)CC2)nc1	12.94%
O=C(O)C(F)(F)F.c1cnc(NC2COC3(CCN(Cc4cc[nH]n4)CC3)C2)nc1 (stereo unspecified)	34.17%
Cc1cccc(C(=O)NCc2ccccc2)n1	12.16%
CC(C)c1nc(CS(=O)(=O)Cc2noc(C3CC3)n2)cs1	-3.995%
COCCCn1ccc(NCc2ccc(NC(C)=O)cc2)n1	0.8511%
CC(C(=O)NCc1ccnc(N2CCN(C)CC2)c1)n1cccn1 (stereo unspecified)	-10.02%
CCCOC1CCCN(c2ncnc3c2CCN(C(=O)C2CC2)C3)C1 (stereo unspecified)	-18.86%
O=C(CCc1ccco1)Nc1cc(C(F)(F)F)c[nH]c1=O	-10.08%
CC(C)(C)C1SCC(=O)Nc2c1c(O)nn2C1CCCCC1 (stereo unspecified)	-17.49%
Cc1cc(CNC2CCCN(c3cccnn3)C2)no1 (stereo unspecified)	-8.426%
Cc1ccc(C(=O)N2CCCN(C)c3ccc(F)cc32)o1	-4.202%
O=C(Nc1cc(Cl)ccn1)c1nc(N2CCCC2)ncc1Cl	-8.025%
Cc1cccc(CN2CCCCC23CCNC3)n1.O=C(O)C(F)(F)F.O=C(O)C(F)(F)F (stereo unspecified)	-14.53%
CC(C)(C)CC(=O)NCC1CCCS1 (stereo unspecified)	5.461%
CC(CCn1cccn1)Nc1ccc(-c2nccn2C)nn1 (stereo unspecified)	1.298%
C=C(C)COc1ccccc1CN1CCCC(C(=O)NCCCO)C1 (stereo unspecified)	10.86%
CCCNC(=O)C1CCN(CC(O)c2ccccc2C(F)(F)F)CC1 (stereo unspecified)	4.681%
c1ccc(-c2ncc3c(n2)C2(CCN(c4ncccn4)C2)COC3)cc1 (stereo unspecified)	1.025%
CCCC(=O)N1CCCC1(C)c1nc(C)no1 (stereo unspecified)	-0.3275%
Cc1c(CN2CCCC2(C)C(=O)N2CCOCC2)cnn1C (stereo unspecified)	6.654%
CC(C)N1CCN(c2ccc3ccc(C(=O)NC4CCCC4)cn23)CC1.O=C(O)C(F)(F)F	-7.064%
CN(C)CC(=O)N1CCC2(CCc3ccc(-c4ccncc4)cc32)CC1.O=C(O)C(F)(F)F.O=C(O)C(F)(F)F	4.585%
CC(NC(=O)N1CCC(OCc2ccccc2)CC1)c1nncn1C (stereo unspecified)	0.07003%
O=C(Nc1ccc(-n2cncn2)nc1)N(CC1CCOC1)C1CC1 (stereo unspecified)	1.732%
Cc1cc(Br)ccc1NCC(=O)Nc1cc(C(C)(C)C)no1	-5.68%
CN(C)C(=O)N1CCc2c(nnn2C)C1COCC1CC1 (stereo unspecified)	1.859%
[H][C@@]12CCN(C(=O)c3ccncn3)C[C@@]1([H])O[C@@H](C)C2	-6.791%
COc1ccc(-n2cnnc2SCCC#N)cn1	0%
[H][C@@]12OCCN(C(=O)c3cccc(C)n3)[C@@]1([H])CC[C@H]2OCCN(C)C	7.278%
Cc1ccccc1OCC(O)CN1CCC(Cn2cccn2)CC1 (stereo unspecified)	-8.18%
[H][C@]12CC[C@]([H])(CN(Cc3ccc(OC)cc3)C1)N(S(C)(=O)=O)C2	22.54%
CC(NC(=O)NCCCc1n[nH]c(N)c1C#N)c1ccc(Cl)cc1 (stereo unspecified)	1.325%
COc1ccc(OC)c2c(C)cc(N(C)CCCO)nc12	4.466%
CN(Cc1ccc(F)cc1)[C@@H]1CN(S(=O)(=O)N(C)C)C[C@H]1O	3.74%
O=C(Cc1ccccn1)N1CCn2cc(Cn3cncn3)nc2C1	1.915%

4 of the entries, repeated:

compound	Percent Effect
CC(C(=O)NCc1ccnc(N2CCN(C)CC2)c1)n1cccn1 (stereo unspecified)	-10.02%
CCc1nc(C2CCCN2CC(=O)NCCOc2ccccc2)no1 (stereo unspecified)	-1.18%
CC(NC(=O)NCCCc1n[nH]c(N)c1C#N)c1ccc(Cl)cc1 (stereo unspecified)	1.325%
Cc1ccc(C(=O)N2CCCN(C)c3ccc(F)cc32)o1	-4.202%

Source: ChEMBL document CHEMBL3988442, “University of Dundee, Small-Polar-MMV Screening Library” (2021).